Data published in PMC8039524.

The chains behind the UniProt entries cited, without tags or fusion partners.
UniProt Q3V6T2: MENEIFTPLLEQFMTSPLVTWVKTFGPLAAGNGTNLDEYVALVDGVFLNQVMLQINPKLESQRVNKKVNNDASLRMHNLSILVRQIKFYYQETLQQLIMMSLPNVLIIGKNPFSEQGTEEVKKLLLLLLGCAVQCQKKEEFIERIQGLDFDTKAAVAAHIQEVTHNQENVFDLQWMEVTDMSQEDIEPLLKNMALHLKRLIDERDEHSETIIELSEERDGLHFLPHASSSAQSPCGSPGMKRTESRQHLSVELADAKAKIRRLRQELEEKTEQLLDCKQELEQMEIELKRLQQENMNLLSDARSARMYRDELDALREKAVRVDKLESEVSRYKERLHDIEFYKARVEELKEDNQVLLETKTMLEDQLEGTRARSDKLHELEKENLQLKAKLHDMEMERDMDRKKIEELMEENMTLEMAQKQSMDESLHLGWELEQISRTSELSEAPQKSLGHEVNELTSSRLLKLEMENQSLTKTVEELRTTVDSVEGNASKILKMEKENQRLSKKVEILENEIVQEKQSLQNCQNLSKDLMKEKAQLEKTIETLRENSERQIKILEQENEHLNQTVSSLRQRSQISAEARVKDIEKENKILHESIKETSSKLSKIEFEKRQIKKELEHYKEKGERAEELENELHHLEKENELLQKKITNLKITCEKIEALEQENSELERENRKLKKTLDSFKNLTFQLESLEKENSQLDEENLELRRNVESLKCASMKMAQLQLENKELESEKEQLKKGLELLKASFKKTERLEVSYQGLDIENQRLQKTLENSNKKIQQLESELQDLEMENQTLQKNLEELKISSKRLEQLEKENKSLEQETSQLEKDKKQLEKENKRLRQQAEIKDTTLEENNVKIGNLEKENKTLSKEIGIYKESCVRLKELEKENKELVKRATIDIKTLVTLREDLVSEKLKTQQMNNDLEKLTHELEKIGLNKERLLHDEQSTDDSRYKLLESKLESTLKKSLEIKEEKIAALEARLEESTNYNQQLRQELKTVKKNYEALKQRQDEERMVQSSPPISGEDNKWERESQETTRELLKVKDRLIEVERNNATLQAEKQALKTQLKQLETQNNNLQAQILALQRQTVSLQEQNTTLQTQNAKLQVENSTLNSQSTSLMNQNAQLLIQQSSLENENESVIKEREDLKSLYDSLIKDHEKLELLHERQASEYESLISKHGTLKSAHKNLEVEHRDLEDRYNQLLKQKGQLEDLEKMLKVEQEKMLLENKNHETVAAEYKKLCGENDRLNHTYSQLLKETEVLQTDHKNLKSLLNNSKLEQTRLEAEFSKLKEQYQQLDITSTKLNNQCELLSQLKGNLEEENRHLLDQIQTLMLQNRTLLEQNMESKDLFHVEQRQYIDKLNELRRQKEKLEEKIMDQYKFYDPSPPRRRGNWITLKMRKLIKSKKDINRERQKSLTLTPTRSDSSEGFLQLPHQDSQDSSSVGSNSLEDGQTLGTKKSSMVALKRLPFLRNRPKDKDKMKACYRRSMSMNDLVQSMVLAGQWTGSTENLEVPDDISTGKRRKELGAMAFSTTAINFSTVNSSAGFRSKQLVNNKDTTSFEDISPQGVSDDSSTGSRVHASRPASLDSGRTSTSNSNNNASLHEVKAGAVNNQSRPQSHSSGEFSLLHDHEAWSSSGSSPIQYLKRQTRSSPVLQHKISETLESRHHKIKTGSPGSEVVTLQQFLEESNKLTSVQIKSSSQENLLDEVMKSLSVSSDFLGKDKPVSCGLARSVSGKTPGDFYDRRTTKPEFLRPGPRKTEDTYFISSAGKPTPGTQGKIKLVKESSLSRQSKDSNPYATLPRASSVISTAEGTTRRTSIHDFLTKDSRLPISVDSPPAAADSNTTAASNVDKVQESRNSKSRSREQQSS

B1: Peptidyl-prolyl cis-trans isomerase FKBP4 (protein, UniProt Q02790 1-459)
chain: MTAEEMKATESGAQSAPLPMEGVDISPKQDEGVLKVIKREGTGTEMPMIGDRVFVHYTGWLLDGTKFDSSLDRKDKFSFDLGKGEVIKAWDIAIATMKVGEVCHITCKPEYAYGSAGSPPKIPPNATLVFEVELFEFKGEDLTEEEDGGIIRRIQTRGEGYAKPNEGAIVEVALEGYYKDKLFDQRELRFEIGEGENLDLPYGLERAIQRMEKGEHSIVYLKPSYAFGSVGKEKFQIPPNAELKYELHLKSFEKAKESWEMNSEEKLEQSTIVKERGTVYFKEGKYKQALLQYKKIVSWLEYESSFSNEEAQKAQALRLASHLNLAMCHLKLQAFSAAIESCNKALELDSNNEKGLFRRGEAHLAVNDFELARADFQKVLQLYPNNKAAKTQLAVCQQRIRRQLAREKKLYANMFERLAEEENKAKAEASSGDHPTDTEMKEEQKSNTAGSQSQVETEA
B2: Four and a half LIM domains protein 2 (protein, UniProt Q14192 1-279)
chain: MTERFDCHHCNESLFGKKYILREESPYCVVCFETLFANTCEECGKPIGCDCKDLSYKDRHWHEACFHCSQCRNSLVDKPFAAKEDQLLCTDCYSNEYSSKCQECKKTIMPGTRKMEYKGSSWHETCFICHRCQQPIGTKSFIPKDNQNFCVPCYEKQHAMQCVQCKKPITTGGVTYREQPWHKECFVCTACRKQLSGQRFTARDDFAYCLNCFCDLYAKKCAGCTNPISGLGGTKYISFEERQWHNDCFNCKKCSLSLVGRGFLTERDDILCPDCGKDI
B3: Junction plakoglobin (protein, UniProt P14923 1-745)
chain: MEVMNLMEQPIKVTEWQQTYTYDSGIHSGANTCVPSVSSKGIMEEDEACGRQYTLKKTTTYTQGVPPSQGDLEYQMSTTARAKRVREAMCPGVSGEDSSLLLATQVEGQATNLQRLAEPSQLLKSAIVHLINYQDDAELATRALPELTKLLNDEDPVVVTKAAMIVNQLSKKEASRRALMGSPQLVAAVVRTMQNTSDLDTARCTTSILHNLSHHREGLLAIFKSGGIPALVRMLSSPVESVLFYAITTLHNLLLYQEGAKMAVRLADGLQKMVPLLNKNNPKFLAITTDCLQLLAYGNQESKLIILANGGPQALVQIMRNYSYEKLLWTTSRVLKVLSVCPSNKPAIVEAGGMQALGKHLTSNSPRLVQNCLWTLRNLSDVATKQEGLESVLKILVNQLSVDDVNVLTCATGTLSNLTCNNSKNKTLVTQNSGVEALIHAILRAGDKDDITEPAVCALRHLTSRHPEAEMAQNSVRLNYGIPAIVKLLNQPNQWPLVKATIGLIRNLALCPANHAPLQEAAVIPRLVQLLVKAHQDAQRHVAAGTQQPYTDGVRMEEIVEGCTGALHILARDPMNRMEIFRLNTIPLFVQLLYSSVENIQRVAAGVLCELAQDKEAADAIDAEGASAPLMELLHSRNEGTATYAAAVLFRISEDKNPDYRKRVSVELTNSLFKHDPAAWEAAQSMIPINEPYGDDMDATYRPMYSSDVPLDPLEMHMDMDGDYPIDTYSDGLRPPYPTADHMLA
B4: Fructose-bisphosphate aldolase (protein, UniProt P04075 1-364)
chain: MPYQYPALTPEQKKELSDIAHRIVAPGKGILAADESTGSIAKRLQSIGTENTEENRRFYRQLLLTADDRVNPCIGGVILFHETLYQKADDGRPFPQVIKSKGGVVGIKVDKGVVPLAGTNGETTTQGLDGLSERCAQYKKDGADFAKWRCVLKIGEHTPSALAIMENANVLARYASICQQNGIVPIVEPEILPDGDHDLKRCQYVTEKVLAAVYKALSDHHIYLEGTLLKPNMVTPGHACTQKFSHEEIAMATVTALRRTVPPAVTGITFLSGGQSEEEASINLNAINKCPLLKPWALTFSYGRALQASALKAWGGKKENLKAAQEEYVKRALANSLACQGKYTPSGQAGAAASESLFVSNHAY

These binders were tested against Girdin (girders of actin filament) (human (endogenous in BxPC-3 and PANC-1)) (UniProt Q3V6T2) (assay: affinity purification with mass spectrometry; lysates of BxPC-3 cells transfected with Scramble or Girdin lentivirus, immunoprecipitated with anti-Girdin antibody; LC-MS/MS on LTQ-Orbitrap, MaxQuant).

binding, binds:
B1, B2, B3, B4

Results are given in words; binding and its absence hold for the method and conditions named. Binding seen in cells or lysates may run through a third protein. Here binding means that the protein was enriched with, or labelled near, the bait; the list need not be complete.
